These are yes or no findings as the source states them, for the method shown. Binding seen in cells or lysates may run through a third protein. A yes stands for co-enrichment or nearness to the bait. Other partners may have been found. Values belong to the molecule of their own block, whether it stands above or below them.
Key:
[1] = biological target: BL-Afadin (rat) (UniProt O35889); experiment: proximity labelling; BioID: BirA*-Afadin fusion expressed in MDCK cells (duplicates; one replicate each also in ZO-1/ZO-2 knock-down MDCK cells), 50 µM biotin for 24 h, lysates on streptavidin Dynabeads, trypsin digestion, label-free LC-MS/MS; hits SAINT >=0.9 versus BirA* alone
[2] = biological target: Afadin-BL (rat) (UniProt O35889); experiment: as above
[3] = biological target: Afadin-BL (rat) (UniProt O35889); experiment: proximity labelling; BirA*-Afadin fusion in stable MDCK lines, biotin over a time course of hours, biotinylated proteins affinity-purified with streptavidin, immunoblot for junctional and cytoskeletal proteins
[4] = biological target: BL-Afadin (rat) (UniProt O35889); experiment: as above

Amino acid sequences for entries named in this document (tags omitted). A change or cut given only in a name is not applied to a line headed by its entry. Chains listed by the source or under a name are the forms on record and can include a tag or linker.
UniProt O35889: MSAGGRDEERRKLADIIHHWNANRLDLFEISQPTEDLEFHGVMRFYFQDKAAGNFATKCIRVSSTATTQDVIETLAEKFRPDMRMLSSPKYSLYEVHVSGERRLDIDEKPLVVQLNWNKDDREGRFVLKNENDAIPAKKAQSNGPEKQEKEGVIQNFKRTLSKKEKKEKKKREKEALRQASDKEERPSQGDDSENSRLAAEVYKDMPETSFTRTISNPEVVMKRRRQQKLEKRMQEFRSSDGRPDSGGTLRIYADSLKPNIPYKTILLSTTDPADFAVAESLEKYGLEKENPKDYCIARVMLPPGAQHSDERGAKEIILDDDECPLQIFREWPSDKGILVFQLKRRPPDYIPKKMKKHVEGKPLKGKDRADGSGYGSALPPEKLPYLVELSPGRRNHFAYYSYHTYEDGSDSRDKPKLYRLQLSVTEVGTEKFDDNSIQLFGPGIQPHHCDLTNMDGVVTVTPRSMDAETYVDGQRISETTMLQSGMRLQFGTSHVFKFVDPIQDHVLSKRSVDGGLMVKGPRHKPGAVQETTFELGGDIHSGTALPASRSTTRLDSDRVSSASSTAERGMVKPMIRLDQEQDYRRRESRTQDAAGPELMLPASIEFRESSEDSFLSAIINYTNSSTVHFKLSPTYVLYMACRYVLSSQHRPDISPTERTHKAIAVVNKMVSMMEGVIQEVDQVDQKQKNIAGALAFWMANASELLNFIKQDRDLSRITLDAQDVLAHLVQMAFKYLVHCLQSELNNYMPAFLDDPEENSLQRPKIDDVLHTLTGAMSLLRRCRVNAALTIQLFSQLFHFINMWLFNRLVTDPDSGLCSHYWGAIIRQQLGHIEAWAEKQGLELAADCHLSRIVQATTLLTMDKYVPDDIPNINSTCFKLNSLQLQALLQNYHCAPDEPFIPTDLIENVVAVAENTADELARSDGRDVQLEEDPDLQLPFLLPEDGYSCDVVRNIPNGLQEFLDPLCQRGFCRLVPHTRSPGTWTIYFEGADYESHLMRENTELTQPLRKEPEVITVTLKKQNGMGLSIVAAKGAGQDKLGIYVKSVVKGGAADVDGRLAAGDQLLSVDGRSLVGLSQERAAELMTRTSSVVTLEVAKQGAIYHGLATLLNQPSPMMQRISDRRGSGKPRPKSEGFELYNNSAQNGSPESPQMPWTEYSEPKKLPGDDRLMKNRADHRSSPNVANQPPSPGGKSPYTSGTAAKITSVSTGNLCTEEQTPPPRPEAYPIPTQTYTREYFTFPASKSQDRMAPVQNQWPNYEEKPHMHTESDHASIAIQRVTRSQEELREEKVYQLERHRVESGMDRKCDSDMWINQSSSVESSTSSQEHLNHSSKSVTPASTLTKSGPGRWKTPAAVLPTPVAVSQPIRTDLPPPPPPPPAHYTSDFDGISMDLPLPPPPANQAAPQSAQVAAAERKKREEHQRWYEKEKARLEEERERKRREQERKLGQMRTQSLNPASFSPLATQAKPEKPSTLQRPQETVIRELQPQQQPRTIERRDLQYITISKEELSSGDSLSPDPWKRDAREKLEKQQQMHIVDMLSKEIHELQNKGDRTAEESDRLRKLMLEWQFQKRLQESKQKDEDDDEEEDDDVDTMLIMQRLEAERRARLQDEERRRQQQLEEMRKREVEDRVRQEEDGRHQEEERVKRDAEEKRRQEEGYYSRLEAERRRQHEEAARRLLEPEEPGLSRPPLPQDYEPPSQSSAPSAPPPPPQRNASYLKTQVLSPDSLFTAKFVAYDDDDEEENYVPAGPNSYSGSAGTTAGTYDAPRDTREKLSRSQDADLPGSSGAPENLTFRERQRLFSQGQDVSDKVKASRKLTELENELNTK
UniProt A0A8C0TYJ0: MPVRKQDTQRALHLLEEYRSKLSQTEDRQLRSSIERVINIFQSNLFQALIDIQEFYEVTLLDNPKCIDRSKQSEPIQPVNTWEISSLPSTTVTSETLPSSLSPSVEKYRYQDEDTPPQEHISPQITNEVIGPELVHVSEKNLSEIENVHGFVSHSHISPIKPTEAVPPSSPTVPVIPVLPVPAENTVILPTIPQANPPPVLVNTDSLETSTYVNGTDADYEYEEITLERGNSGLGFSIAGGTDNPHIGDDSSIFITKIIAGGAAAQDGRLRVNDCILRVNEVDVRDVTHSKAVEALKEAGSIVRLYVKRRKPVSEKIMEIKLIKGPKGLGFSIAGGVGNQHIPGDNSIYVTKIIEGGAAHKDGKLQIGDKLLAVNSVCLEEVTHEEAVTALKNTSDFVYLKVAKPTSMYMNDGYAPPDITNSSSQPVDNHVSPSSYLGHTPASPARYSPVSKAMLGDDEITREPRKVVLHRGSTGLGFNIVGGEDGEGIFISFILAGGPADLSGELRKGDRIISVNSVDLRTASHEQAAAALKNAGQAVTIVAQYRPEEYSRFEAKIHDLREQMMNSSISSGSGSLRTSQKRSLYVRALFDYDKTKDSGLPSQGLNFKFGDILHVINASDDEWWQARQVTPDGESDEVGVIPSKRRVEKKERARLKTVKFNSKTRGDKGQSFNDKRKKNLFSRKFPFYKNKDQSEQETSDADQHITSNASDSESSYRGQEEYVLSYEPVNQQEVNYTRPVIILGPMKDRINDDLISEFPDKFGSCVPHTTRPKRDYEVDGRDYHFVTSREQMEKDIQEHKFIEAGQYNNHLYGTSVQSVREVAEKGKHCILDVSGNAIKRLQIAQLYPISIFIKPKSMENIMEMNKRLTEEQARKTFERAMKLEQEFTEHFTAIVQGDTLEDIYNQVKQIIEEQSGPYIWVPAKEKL
ISG15 ubiquitin like modifier (A0A8I3P342, form named): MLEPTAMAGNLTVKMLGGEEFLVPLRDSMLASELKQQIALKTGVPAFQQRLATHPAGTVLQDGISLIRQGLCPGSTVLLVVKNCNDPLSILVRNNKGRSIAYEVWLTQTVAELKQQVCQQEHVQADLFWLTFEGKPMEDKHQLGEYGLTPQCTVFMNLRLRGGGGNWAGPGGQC
UniProt A0A8I3QBX3: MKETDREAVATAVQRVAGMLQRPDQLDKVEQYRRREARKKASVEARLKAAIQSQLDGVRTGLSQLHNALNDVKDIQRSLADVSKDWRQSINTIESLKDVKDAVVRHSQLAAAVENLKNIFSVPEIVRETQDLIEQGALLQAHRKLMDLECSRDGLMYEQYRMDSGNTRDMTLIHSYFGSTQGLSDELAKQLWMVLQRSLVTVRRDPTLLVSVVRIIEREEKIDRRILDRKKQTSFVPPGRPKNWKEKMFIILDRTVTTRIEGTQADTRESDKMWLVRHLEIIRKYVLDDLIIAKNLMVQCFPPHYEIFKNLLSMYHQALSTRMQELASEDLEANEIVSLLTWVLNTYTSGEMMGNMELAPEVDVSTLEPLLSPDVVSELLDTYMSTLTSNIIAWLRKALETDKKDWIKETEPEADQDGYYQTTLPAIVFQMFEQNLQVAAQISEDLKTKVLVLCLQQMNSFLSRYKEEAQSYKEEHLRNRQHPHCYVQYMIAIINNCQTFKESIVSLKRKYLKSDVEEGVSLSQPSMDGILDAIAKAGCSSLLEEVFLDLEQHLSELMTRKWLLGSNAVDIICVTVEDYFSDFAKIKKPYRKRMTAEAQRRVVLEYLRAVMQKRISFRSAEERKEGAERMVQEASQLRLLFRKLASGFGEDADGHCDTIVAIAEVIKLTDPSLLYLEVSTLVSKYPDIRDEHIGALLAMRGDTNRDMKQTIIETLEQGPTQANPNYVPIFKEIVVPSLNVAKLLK
UniProt O97758: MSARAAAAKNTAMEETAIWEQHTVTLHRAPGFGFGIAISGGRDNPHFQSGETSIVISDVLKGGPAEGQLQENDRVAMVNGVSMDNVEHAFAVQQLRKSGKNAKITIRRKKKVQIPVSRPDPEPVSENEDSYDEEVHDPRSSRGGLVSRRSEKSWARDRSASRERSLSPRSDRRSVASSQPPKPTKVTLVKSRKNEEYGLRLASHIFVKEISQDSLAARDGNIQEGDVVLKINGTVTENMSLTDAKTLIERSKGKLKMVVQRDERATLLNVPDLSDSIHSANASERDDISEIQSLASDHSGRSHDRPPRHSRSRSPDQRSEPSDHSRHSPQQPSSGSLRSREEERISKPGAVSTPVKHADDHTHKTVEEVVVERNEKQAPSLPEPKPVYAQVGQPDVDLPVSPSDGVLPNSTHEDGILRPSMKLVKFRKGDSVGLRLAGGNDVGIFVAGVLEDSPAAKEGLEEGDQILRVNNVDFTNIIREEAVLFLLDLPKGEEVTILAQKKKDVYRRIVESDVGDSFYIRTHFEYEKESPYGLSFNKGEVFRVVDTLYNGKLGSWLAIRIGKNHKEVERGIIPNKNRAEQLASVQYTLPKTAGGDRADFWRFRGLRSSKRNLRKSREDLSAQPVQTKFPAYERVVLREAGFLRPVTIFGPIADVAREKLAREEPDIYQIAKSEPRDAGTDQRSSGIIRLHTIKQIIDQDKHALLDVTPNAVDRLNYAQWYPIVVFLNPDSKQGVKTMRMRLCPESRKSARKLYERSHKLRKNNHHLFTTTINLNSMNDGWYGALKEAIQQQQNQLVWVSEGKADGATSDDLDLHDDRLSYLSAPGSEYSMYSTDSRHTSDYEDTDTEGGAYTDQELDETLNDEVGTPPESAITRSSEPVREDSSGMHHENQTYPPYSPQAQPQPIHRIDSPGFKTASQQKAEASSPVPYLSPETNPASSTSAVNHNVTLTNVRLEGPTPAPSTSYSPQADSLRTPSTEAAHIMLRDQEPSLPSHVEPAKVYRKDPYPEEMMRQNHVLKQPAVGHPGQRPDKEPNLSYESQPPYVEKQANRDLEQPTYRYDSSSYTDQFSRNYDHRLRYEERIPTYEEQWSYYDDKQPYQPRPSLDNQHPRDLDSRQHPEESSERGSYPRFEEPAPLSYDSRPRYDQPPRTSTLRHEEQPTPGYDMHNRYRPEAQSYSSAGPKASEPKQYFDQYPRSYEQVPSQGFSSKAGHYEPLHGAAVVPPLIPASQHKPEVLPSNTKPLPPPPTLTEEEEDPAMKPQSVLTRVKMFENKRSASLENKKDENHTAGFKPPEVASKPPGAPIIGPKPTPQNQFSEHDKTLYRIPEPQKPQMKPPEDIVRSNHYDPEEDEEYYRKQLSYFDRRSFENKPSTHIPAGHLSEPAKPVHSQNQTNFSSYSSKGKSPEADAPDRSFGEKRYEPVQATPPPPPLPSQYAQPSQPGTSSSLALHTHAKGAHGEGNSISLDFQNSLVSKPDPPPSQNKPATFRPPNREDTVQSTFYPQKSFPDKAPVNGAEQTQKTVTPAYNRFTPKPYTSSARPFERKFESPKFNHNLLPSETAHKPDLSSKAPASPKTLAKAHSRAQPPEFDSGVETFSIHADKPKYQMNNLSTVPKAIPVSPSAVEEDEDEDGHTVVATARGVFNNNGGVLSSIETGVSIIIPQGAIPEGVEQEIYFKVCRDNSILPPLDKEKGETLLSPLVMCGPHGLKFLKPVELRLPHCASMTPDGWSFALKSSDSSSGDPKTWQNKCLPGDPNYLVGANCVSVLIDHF
UniProt Q2THW9: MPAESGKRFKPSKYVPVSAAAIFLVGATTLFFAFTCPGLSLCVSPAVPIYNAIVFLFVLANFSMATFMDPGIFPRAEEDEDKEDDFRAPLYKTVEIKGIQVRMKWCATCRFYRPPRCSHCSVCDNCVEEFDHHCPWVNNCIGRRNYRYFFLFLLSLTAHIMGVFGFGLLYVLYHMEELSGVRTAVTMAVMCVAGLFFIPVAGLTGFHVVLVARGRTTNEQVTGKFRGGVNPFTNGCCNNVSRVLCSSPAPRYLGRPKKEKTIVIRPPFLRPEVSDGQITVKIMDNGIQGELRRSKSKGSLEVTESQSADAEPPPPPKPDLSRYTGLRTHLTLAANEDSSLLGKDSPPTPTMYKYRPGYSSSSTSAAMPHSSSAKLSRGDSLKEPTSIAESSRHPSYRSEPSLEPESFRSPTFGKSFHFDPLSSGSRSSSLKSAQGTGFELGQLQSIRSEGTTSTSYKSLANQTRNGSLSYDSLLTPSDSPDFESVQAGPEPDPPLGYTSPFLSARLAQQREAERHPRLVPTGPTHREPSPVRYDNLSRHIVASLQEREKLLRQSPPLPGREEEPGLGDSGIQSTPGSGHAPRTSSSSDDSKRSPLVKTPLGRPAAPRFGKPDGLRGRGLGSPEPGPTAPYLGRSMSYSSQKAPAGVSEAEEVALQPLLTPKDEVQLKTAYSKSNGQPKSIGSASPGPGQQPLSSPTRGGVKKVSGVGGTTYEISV
UniProt A0A8I3PMR7: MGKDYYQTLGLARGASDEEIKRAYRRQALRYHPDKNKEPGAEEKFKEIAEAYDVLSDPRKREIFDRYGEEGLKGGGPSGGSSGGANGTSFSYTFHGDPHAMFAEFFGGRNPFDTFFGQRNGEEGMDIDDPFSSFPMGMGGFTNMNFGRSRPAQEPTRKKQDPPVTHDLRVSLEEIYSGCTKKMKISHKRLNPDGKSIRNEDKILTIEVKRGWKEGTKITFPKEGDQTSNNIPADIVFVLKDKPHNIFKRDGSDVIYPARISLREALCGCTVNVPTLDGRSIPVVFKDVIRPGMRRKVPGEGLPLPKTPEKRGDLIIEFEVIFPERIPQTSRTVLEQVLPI

Molecule: LIM domain and actin binding 1=EPLIN (from UniProt A0A8I3PA03 1-762)
- binding [1]: binds

Molecule: Scribble planar cell polarity protein (from UniProt A0A8P0N4K0 1-1614)
- binding [2]: binds
- binding [1]: binds

Molecule: Niban apoptosis regulator 2=FAM129B (from UniProt A0A8I3NCX0 1-746)
- binding [2]: binds

Molecule: Talin 1 (from UniProt A0A8I3N6K0 1-2558)
- binding [1]: binds

Molecule: Discs large homolog 1 (from UniProt A0A8C0TYJ0 1-927)
- binding [2]: binds
- binding [1]: binds

Molecule: ISG15 ubiquitin like modifier (from UniProt A0A8I3P342 1-174)
- binding [2]: binds
- binding [1]: binds

Molecule: Ras association domain family member 8 (from UniProt A0A8I3PTS8 1-419)
- binding [2]: binds
- binding [1]: binds

Molecule: Tripartite motif containing 25 a ubiquitin E3 ligase (from UniProt A0A8I3S0A8 1-631)
- binding [2]: binds
- binding [1]: binds

Molecule: CD2 associated protein (from UniProt A0A8I3S099 1-639)
- binding [2]: binds
- binding [1]: binds

Molecule: Ribosome binding protein 1 (from UniProt Q28298 1-1534)
- binding [2]: binds

Molecule: Exocyst complex component 3 (from UniProt A0A8I3QBX3 1-745)
- binding [2]: binds

Molecule: Vasodilator stimulated phosphoprotein (from UniProt P50551 1-384)
- binding [2]: binds
- binding [1]: binds

Now from value to molecule:

- binding [3]: binds
- binding [4]: binds
- binding [2]: binds
- binding [1]: binds
Molecule: Tight junction protein 1 =ZO-1 (from UniProt O97758 1-1769)

- binding [2]: binds
Molecule: Palmitoyltransferase ZDHHC5 (from UniProt Q2THW9 1-715)

- binding [2]: binds
- binding [1]: binds
Molecule: Serine/threonine-protein phosphatase (EC 3.1.3.16) (from UniProt Q8MJ47 1-327)

- binding [2]: binds
- binding [1]: binds
Molecule: Erythrocyte membrane protein band 4.1 (from UniProt Q6Q7P4 1-810)

- binding [1]: binds
Molecule: Tankyrase 1 binding protein 1 (from UniProt A0A8I3S5F5 1-1737)

- binding [2]: binds
- binding [1]: binds
Molecule: LIM and SH3 domain protein 1 (from UniProt A0A8I3RXT2 1-318)

- binding [2]: binds
- binding [1]: binds
Molecule: Leucine zipper protein 1 (from UniProt A0A8I3P0F9 1-1074)

- binding [2]: binds
- binding [1]: binds
Molecule: Leucine zipper putative tumor suppressor 2 (Protein LAPSER1) (from UniProt A0A8I3NZ94 1-670)

- binding [2]: binds
Molecule: Annexin (from UniProt A0A8I3M9P4 1-345)

- binding [2]: binds
Molecule: Cyclin dependent kinase 6 (from UniProt A0A8I3RZY6 1-326)

- binding [2]: binds
- binding [1]: binds
Molecule: Tumor protein p53 binding protein 2=Aspp2 (from UniProt A0A8I3NPK4)

- binding [2]: binds
Molecule: DnaJ heat shock protein family (Hsp40) member B1 (from UniProt A0A8I3PMR7 1-340)

- binding [2]: binds
- binding [1]: binds
B1: Tight junction protein 3=ZO-3 (protein, UniProt O62683 1-898)
chain: MEELTIWEQHTATLCRDPRRGFGIAISGGRDRASGSVVVSDVVPGGPADGRLQTGDHVVMVNGVSMESVTSTFAIQILKTCTKLANITVKRPRKIQLPATKAGTSGRGRQGLEEEADCGQGYDGDTSSGSGRSWDKRSRRARTGRRNQAGSRGRRSPGGNSEANGLALVSGFKRLPRQDVHMRPVKSVLVRRTESEEFGVTLGSQIFIKHITDSGLAARNRGLQEGDLILQINGVSSENLSLSDTRRLIEKSEGKLTLLVLRDRGQFLVNIPPAVSDSDSDSSFLDDISALGSELSQAVPSHVPPPPPHAQRSLDSDGTDSPRDSPPLRRENSLDSRTISEPDAPRHSSYDIYRVPSSQSAEDRGYSPDSRVVRFHKGTTIGLRLAGGNDVGIFVSGVQEGSPADGQGIQEGDQILQVNDVPFRNLTREEAVQFLVALPPGEEVELVTQRNEDIFRKMVQSRVGDSFYIRTHFELEASPPSGLGFTRGDVFHVLDTLCPGPGPSGARGTHWLAVRMGRDLREQERGIIPNQSRAEQLASLESAQRAVGAGPGASVGSSARAEFWRLRGLRRGAKKSTQRSREDLSALTRQGHYPPYERVVLREASFKRPVVILGPVADIAMQKLTAEMPDQFGIADSVLRTDSPSKIIKLDTVRVIAEKNKHALLDVTPSAVERLNYVQYYPIVVFCAPESRAALKALRQWLAPASRRSARRLYAQAQKLRKHSEHLFTATIPLRGTSDTWYQELKAVVREQQTRPIWTAEDQLDNSSEDNLELPHRGLADSSADLSCDSRVNSDYETDGEGYTDGEGYTDVDEGPPAPALARSSEPVLEEEPRSPRDHGRASGARGAQVDRHPYHSQGRQDSMRTYGQEALKKKFTRARDVESSDEDGYDWGPATDL

- binding [2]: binds
- binding [1]: binds
B2: Cingulin (protein, UniProt A7YH32 1-1196)
chain: MEQASTMAEPRGPVDHGVQIRFITEPVGNAEMDTLRRGGRRPAKDARANTYGVAVRVQGIAGQPFVVLNSGEQGSDSFGVQIKGTNNRGPPGALSSDSELPESTYSHAKEFPARSQGSMSDEELGAHWNGRLLRSQSQASLKGPAPVSPSTRSTSLLQLAPEVASPGSTIDTAPLSSVDSLINKFDSRQGGQARGRTGRRMRTLPPEQRKRSQSLDNRLPRDTLDEREHQFPTHWTPSTKRDSHMGNSKQSSQNQGPLGGFSCSRQTQDWVLQSFEEPRGRAWDPGMLQFKSTPDLLRDQQETAPPGSVDHVKATIYSILREGSSETETSVRRKVNLVLEQMQPLVMTSGSAKGLTGQSELSQKVEELQQKLDEEVKKRPKLESSRLGLERQLQEKAEECSQLQELLERRKGEAQQSTKELQNMKLLVDQSERVRCGLEAQVKELQDKLKQAQEPEPAKEALMKDLLEARELLEEVLEGKQRMEEHLRLRERELTALKGALKEEVASRDQEVEHVRQQCQRDAEQLRRSIQDATQDHAALEVERQKMSTLVRELQKELEETSEETGHWQSMFQKNKDELRATKQELLQLRMEKEEIEEELGEKIEVLQRELGQARAGAADTRQMEELKKELCQTQKELKELKEEQQNQEVAGRHRERELEKQLKVEADRGQGLEQQNLQLQKTLQQLRQDCEEASKAQVAAEAEVAVLGQRRAAVEVTLRETQEENDEFRRRILGLEQQLKEARGLAEGGEVAEARLRDKVQRLEAEKQRLEEALNAAQEEEGSLAAAKRALEARLEEAQRGLARLGQEQLALNRALEEEGKQREALRRSKAELEEQKRLLDKTVCQLNKELEQIGNDSKQALQQLQAQLEDYKEKARREVADAQRQAKEWATEAEKNSGGLSRLQDETQRLRQALQASQADRDTARLDKELLAQRLQGLEQEAENKKRSQDDRARQLKGLEEKVSRLEAELDEERSTVELLTERVTRGRDQVDQLRSELMQERSARQDLECDKISLERQNKDLKSRLASSEGFQKPSASLSQLESQNQELQERLQAEEREKTVLQSTNRKLERRVKELSIQIDDERQHVNDQKDQLSLRVKALKRQVDEAEEEIERLDGLRKKAQRELEEQHEVNEQLQARIKTLEKDSWRKASRSAAESAQREGLSSDEEFDSVYDPSSIASLLTESNLQTSSC

- binding [2]: binds
B3: Uveal autoantigen with coiled-coil domains and ankyrin repeats (protein, UniProt Q9GL21 1-1415)
chain: MPSSLLLATRNQILSMMNCWFSCAPKNRHAADWNKYDDRLMKAAERGDVEKVSSILAKKGINPGKLDVEGRSAFHVVASKGNLECLNAILIHGVDITTSDTAGRNALHLAAKYGHALCLQKLLQYNCPTEHADLQGRTALHDAAMADCPSSIQLLCDHGASVNAKDVDGRTPLVLATQMCRPAICQLLIDRGAEINSRDKQNRTALMLGCEYGCKDAVEVLLKNGADVSLLDALGHDSSYYARIGDNLDILTLLKTASENTNKGRELWKKGPSLQQRNLPYMLDEVNVKSSQREHRNIQELEIENEDLKDRLRKIQQEQRILLDKVNGLQLQLNEEVMVADDLESEKEKLKSLLVAKEKQHEESLRTIESLKNRFKYFESDHLGSGSHFSNRKEDMLLKQGQMYMTCTSPGVPAHMQSRSMLRPLELSLPNQTSYSENDLLKKELEAMRTFCESAKQDRLKLQNELAHKVAECKALGLECERIKEDSDEQIKQLEDALKDVQKRMYESEGKVKQMQTHFLALKEHLTSEAAIGNHRLMEELKDQLKDMKAKYEGASAEVGKLRNQIKQNELLVEQFRRDEGKLVEENKRLQKELSMCETERDKKGRRVAEVEGQVKELLAKLTLSVPTEKFESMKSLLSSEVNEKVKKIGETEREYEKSLTEIRQLRRELENCKAKLAQHVKPEEHEQLKSRLEQRAGELAKKVTELTSKNQVLQRDVEKVYLDNKLLNQQVHNLTSEIKSHYVPLQVSEEMKKSHDVTVEELKKQLLDVTQKCADKQLEMEKLLLENDSLSKNVSRLETVFVPPEKHQKEVTALKSSVADLKRQLLELNKKCGEDREKINALVSENTSLKKTLSNQYVPAKTHEEVKTALSGTLDKTNRELLDAKKKWEDLNQEFVKTKDENEILKRNLENTQSQIKAEYISLREHEEKMSAINQNMKSVQDNSAEILANYRKGQEEIVTLHAEIEAQKKELDTIQECIKLKYAPIISFEECERKFKATEKELKEQLSEQMQKYHVREEEAKKYKQENDKLKKEIFTLQKDLKDKNVLIENSHDMERALNRKAEELNKQLKDLLQKYSEIKTEKEKLVDDNARQTSELLAAQTLLQKQHVPLEQVETLKKSLNSTIEHLKEELKNKQKCYEKEQQTVAKLHQMLENQKNSSVPLGEHLRVKEAFEKEVGMIKASLREKEEESQNKTEEVSKLQSEVQDTKQALQKLETREVVDLSKYKATKSDLETQISNLNEKLANLNRKYEEACEEVLRAQRKQLSAKDEKELLHFSIEQEIKDQQERCDKSLTTITELQKRIQESAKQIEAKDNKITELLNDVERLKQALSGLSQLTSPSGSPSKRQSQLIDTLQHQVKSLQQQLADTDRQHQEVIAIYRTHLLSAAQGHMDEDVQAALLQIIQMRQGLVC

From PMC11810119
